# Data published in the supplement of paper PMC11732987, “Enantioselective OTUD7B fragment discovery through chemoproteomics screening and high-throughput optimisation” (Communications Chemistry, 2025).
# Protein sequences, listed by entry. Tags and fused reporters are not part of them. Lines headed by an entry give the natural chain unless they say otherwise; changes in a name come on top. Residues count along the entry.
# UniProt Q9BUI4, 160-185: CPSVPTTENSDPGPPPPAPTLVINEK
# UniProt P78527, whole entry, looked up: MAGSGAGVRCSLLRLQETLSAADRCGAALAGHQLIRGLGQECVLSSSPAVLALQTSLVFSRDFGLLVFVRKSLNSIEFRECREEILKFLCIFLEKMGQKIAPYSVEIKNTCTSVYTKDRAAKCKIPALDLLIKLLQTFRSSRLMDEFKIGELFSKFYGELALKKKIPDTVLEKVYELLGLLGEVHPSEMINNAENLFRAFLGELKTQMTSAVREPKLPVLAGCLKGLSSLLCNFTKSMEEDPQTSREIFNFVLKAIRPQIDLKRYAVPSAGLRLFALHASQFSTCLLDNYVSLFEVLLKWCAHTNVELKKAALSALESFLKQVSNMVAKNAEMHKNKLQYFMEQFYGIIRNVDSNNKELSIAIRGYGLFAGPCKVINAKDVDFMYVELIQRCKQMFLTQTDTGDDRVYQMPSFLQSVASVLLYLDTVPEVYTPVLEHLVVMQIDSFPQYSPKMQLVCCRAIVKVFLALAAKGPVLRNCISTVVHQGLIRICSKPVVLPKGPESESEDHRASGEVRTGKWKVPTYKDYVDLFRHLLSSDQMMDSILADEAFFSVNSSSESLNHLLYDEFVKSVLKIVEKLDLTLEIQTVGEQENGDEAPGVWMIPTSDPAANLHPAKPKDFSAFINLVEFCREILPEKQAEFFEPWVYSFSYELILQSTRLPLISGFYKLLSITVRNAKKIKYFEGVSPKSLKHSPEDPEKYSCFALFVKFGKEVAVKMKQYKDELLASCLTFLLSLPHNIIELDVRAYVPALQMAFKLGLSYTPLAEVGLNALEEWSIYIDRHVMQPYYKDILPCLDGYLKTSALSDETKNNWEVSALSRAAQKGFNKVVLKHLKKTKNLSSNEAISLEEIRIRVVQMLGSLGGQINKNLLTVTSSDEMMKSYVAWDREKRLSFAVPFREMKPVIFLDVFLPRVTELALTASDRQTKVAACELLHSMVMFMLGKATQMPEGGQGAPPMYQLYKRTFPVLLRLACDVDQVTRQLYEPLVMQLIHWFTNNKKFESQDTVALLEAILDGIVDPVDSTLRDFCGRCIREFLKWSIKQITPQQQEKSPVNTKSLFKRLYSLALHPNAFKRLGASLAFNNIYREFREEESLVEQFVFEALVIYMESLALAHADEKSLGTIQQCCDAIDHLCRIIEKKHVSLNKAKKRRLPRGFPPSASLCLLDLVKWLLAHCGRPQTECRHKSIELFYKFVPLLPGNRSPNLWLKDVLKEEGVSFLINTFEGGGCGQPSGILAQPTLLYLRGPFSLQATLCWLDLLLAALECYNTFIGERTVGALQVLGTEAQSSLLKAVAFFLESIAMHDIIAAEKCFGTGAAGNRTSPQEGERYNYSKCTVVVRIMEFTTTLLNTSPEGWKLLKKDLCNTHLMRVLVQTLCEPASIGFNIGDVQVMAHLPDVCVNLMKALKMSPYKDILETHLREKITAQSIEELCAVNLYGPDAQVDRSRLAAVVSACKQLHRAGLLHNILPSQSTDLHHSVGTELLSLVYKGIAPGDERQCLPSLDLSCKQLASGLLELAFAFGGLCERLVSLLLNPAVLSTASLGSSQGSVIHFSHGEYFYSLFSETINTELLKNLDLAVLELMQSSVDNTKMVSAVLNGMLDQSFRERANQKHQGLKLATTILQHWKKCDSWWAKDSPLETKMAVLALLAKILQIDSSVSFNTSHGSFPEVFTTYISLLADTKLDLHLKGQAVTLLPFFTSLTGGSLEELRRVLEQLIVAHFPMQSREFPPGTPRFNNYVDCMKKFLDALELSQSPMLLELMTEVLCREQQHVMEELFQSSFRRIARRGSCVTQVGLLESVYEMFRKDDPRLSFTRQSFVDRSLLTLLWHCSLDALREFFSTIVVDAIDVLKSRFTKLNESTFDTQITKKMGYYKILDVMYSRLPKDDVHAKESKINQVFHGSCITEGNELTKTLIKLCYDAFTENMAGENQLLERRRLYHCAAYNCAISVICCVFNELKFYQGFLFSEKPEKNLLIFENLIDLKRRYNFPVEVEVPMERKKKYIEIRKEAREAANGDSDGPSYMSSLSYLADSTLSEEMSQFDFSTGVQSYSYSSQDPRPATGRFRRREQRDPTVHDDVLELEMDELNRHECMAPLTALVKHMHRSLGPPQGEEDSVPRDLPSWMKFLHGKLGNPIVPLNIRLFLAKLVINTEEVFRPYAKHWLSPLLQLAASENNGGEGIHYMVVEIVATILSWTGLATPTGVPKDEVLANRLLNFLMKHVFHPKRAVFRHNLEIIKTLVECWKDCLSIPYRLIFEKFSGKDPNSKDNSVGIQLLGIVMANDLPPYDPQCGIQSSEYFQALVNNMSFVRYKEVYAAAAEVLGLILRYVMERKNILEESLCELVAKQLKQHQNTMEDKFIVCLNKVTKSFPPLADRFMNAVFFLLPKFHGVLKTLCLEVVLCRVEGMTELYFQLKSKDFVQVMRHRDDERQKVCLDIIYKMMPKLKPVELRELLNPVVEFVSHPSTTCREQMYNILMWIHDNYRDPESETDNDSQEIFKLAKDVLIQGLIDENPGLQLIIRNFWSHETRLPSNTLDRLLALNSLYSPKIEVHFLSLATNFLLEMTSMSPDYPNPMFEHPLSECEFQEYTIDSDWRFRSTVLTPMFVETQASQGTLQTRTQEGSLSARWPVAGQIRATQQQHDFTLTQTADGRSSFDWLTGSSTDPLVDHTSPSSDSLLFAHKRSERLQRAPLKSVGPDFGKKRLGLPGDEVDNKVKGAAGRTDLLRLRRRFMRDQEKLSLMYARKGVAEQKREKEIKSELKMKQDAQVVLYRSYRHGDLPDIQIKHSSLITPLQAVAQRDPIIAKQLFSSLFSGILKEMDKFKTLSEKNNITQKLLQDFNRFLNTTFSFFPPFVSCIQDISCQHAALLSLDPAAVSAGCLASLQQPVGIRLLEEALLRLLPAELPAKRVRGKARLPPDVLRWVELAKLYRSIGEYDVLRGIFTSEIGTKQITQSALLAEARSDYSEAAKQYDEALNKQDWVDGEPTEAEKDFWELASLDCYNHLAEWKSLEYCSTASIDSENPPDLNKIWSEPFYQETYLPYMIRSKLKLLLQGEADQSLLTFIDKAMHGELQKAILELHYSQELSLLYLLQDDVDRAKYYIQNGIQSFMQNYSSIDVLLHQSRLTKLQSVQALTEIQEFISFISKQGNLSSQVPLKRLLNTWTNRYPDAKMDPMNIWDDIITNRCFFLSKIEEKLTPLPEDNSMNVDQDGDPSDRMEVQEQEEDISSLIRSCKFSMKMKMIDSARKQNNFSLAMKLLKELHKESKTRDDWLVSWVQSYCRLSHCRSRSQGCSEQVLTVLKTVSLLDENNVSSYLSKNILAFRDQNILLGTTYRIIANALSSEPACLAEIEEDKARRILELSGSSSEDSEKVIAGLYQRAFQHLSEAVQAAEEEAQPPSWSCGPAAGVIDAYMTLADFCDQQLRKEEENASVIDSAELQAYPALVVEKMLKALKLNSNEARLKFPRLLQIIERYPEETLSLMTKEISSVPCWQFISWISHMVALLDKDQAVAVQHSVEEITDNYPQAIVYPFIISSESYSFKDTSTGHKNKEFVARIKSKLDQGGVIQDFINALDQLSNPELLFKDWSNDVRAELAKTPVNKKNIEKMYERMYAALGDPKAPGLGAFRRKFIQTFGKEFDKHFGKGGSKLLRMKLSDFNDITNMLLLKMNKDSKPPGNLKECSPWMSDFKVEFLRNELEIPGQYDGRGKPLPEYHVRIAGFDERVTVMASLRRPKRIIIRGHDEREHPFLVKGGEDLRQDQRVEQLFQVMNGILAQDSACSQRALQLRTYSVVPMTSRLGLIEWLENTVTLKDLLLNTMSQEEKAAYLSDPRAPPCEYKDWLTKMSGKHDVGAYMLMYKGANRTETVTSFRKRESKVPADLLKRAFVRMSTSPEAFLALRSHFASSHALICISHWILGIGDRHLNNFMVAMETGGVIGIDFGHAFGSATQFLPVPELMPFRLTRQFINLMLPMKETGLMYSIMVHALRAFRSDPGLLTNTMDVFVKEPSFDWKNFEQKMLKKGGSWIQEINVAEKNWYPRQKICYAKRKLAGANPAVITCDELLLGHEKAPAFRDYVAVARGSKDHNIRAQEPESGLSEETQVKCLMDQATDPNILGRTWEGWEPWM
# UniProt P78527, 4051-4070: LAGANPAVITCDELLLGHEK
# UniProt P78527, 3336-3357: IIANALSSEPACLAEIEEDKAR
# UniProt O43447: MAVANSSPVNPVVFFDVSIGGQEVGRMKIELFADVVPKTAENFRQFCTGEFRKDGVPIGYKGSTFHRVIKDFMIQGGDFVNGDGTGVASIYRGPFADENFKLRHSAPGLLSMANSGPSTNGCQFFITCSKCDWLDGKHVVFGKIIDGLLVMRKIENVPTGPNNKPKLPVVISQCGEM
# UniProt Q5H9R7, 195-220: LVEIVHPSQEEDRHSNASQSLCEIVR
# UniProt Q86W92, 916-939: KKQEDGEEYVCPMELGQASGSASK
# UniProt Q86W92, 427-455: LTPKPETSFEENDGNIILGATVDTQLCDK
# UniProt Q9H2U2: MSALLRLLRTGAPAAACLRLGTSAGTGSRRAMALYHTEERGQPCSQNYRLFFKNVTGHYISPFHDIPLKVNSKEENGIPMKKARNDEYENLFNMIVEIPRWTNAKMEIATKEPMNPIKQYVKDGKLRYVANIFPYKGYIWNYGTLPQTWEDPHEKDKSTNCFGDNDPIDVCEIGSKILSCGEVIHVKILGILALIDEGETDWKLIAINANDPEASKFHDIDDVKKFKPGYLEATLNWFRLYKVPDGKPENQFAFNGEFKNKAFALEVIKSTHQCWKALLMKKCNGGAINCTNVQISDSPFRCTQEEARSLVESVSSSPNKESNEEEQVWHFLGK
# UniProt Q13162, 46-66: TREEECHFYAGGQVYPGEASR
# UniProt Q86XN7: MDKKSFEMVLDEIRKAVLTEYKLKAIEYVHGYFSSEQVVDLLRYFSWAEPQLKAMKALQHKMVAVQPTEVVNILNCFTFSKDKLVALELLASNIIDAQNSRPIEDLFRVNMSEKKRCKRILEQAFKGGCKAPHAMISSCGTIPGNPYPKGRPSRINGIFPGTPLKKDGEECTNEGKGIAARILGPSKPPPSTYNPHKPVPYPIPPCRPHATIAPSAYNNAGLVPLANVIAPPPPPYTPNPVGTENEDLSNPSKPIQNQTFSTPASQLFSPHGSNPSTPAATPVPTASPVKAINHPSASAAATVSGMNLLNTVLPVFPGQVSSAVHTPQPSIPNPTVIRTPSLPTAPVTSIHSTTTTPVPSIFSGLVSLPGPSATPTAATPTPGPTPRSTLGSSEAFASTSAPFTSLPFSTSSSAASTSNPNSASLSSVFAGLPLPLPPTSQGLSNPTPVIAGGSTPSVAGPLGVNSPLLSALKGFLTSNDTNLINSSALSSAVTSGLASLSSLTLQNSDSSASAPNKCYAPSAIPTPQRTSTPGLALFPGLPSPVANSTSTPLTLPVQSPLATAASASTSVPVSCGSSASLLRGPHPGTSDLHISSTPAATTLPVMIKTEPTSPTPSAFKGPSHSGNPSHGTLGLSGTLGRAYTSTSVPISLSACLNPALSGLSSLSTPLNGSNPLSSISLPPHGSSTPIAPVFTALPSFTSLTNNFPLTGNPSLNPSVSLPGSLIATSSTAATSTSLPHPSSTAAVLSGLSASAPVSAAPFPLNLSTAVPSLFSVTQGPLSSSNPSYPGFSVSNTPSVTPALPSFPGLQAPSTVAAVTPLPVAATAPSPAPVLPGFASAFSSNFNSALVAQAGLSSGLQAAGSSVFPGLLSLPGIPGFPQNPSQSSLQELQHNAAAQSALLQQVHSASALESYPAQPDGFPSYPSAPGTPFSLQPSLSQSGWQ
# UniProt Q13427: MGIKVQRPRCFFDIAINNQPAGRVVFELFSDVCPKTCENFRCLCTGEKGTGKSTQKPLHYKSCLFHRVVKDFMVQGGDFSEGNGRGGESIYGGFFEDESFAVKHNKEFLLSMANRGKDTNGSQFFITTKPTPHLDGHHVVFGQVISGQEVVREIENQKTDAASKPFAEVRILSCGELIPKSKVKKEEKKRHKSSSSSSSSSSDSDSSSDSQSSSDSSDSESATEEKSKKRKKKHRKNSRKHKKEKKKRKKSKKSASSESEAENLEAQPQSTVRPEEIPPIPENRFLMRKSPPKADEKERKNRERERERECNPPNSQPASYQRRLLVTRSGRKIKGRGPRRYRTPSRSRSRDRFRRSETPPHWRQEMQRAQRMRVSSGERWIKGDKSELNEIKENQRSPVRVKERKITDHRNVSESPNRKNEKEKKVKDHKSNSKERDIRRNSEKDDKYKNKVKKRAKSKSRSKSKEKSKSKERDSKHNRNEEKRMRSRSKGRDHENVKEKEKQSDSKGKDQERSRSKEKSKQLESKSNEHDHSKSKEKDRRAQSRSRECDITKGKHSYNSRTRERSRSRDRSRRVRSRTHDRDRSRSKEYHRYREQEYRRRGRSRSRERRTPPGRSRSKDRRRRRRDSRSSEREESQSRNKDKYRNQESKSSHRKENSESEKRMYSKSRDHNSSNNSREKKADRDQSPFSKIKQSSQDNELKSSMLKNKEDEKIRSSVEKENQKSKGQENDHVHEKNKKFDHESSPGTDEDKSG
# UniProt Q8WY54, 494-526: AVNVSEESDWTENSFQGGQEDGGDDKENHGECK
# UniProt P0CG38, 916-938: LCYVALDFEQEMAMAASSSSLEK
# The other results are listed elsewhere or left out. The data scatter; read single values as rough.
# Legend:
# [1] = compound: ClCC(=O)N[C@@H]1CCCc2ccccc12; assay: log2 mean competition ratio of IA-DTB cysteine labelling (DMSO/compound) (log2 ratio); higher = stronger cysteine engagement by compound; conditions: treatment time: 4 h, cell line lysate: HEK293T
# Experimental: (§1)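 IA-DTB competitive cysteine chemoproteomics in HEK293T RIPA lysate. Lysates were treated with compound 29 or 30 at 50 or 200 µM for 4 h, then IA-DTB (500 µM, 1 h), trypsin-digested, NeutrAvidin-enriched and analysed by diaPASEF. Competition ratio = intensity DMSO / intensity compound (n=4 treated, n=64 DMSO); binding: mean log2 CR ≥ 1 and p ≤ 0.05 plus QC filters. Target is the cysteine site.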
# [2] = compound: ClCC(=O)N[C@H]1CCCc2ccccc12; assay: as above; conditions: treatment time: 4 h, cell line lysate: HEK293T
# Experimental: as §1
Target,log2 mean competition ratio ([1]; 50 µM),log2 mean competition ratio ([1]; 200 µM),log2 mean competition ratio ([2]; 50 µM),log2 mean competition ratio ([2]; 200 µM)
PRPF6 C913 (UniProt O94906),-0.0565,0.145,0.442,0.0193
POLR2B C1137 (UniProt P30876),-0.0939,0.224,-0.101,0.0966
POLR3C C160 (UniProt Q9BUI4),-0.333,-0.0981,0.139,-0.202
POLR3E C616 (UniProt Q9NVU0),0.486,0.349,-0.089,0.284
PRKDC C1312 (UniProt P78527),0.0515,-0.075,0.06,-0.0811
PRPF4B C750 (UniProt Q13523),-0.0559,0.244,-0.539,-0.00556
PPIH C131 (UniProt O43447),0.022,0.298,-0.0129,0.425
POP1 C358 (UniProt Q99575),0.0395,0.0745,-0.0492,0.149
PRKAA2 C382 (UniProt P54646),0.196,0.367,-0.331,0.249
PPP2R5E C106 (UniProt Q16537),-0.0396,-0.178,-0.197,-0.263
PRKRA C163 (UniProt O75569),0.0116,0.0424,0.448,0.196
PPAN C180 (UniProt Q9NQ55),0.0954,0.817,-0.054,-0.246
PPP6R3 C467 (UniProt Q5H9R7),0.105,-0.262,0.0677,-0.307
POLR3A C1154 (UniProt O14802),-0.0106,-0.144,0.162,-0.0713
POLR2A C1430,0.324,0.584,0.357,-0.0817
PPHLN1 C309 (UniProt Q8NEY8),-0.111,-0.00487,-0.219,0.0779
PRDM16 C113,0.434,0.0474,0.571,0.106
PPP6R3 C216 (UniProt Q5H9R7),-0.171,0.261,-0.544,0.118
PPP1R18 C276 (UniProt Q6NYC8),-0.252,-0.0638,-0.282,-0.11
PPM1G C164 (UniProt O15355),0.585,-0.537,0.516,-0.417
POLR3A C565 (UniProt O14802),0.161,0.0133,-0.247,-0.258
POT1 C329 (UniProt Q9NUX5),0.604,0.165,0.508,0.26
POLR3E C456 (UniProt Q9NVU0),-0.12,0.0151,-0.356,-0.000518
PRMT5 C22 (UniProt O14744),-0.0828,-0.204,-0.516,-0.106
PRDM2 C875 (UniProt Q13029),-0.0265,0.0162,-0.0149,-0.123

Target,log2 mean competition ratio ([1]; 50 µM),log2 mean competition ratio ([1]; 200 µM),log2 mean competition ratio ([2]; 50 µM),log2 mean competition ratio ([2]; 200 µM)
PRKDC C3293 (UniProt P78527),0.132,-0.22,-0.443,-0.167
PRKDC C2248 (UniProt P78527),0.0164,-0.327,0.0841,-0.467
PPFIBP1 C926 (UniProt Q86W92),-0.212,-0.0686,-0.109,-0.016
PRKDC C4061 (UniProt P78527),0.186,-0.0114,-0.0832,-0.0338
PPM1G C13 (UniProt O15355),-0.11,0.073,-0.183,0.127
PRKCZ C503 (UniProt Q05513),0.497,0.113,0.111,0.111
PPIA C161 (UniProt P62937),-0.217,0.208,-0.122,0.304
PPP2R2A C398,0.0484,-0.436,0.215,-0.432
PRKG1 C43 (UniProt Q13976),0.142,-0.0613,-0.401,-0.202
PPA2 C180 (UniProt Q9H2U2),-0.0702,-0.0364,-0.234,-0.0657
PRPF8 C772 (UniProt Q6P2Q9),-0.00577,0.256,0.0651,0.503
PPP6R3 C836 (UniProt Q5H9R7),-0.0432,0.581,-0.0526,0.589
PRKDC C795 (UniProt P78527),0.123,0.0345,-0.0609,0.215
PRKAG1 C38 (UniProt P54619),-0.143,0.0635,-0.261,0.027
PPA1 C254 (UniProt Q15181),-0.297,-0.00563,-0.326,0.0426
PPP2R5D C484 (UniProt Q14738),-0.0997,-0.192,-0.36,-0.163
PPFIBP1 C453 (UniProt Q86W92),0.0735,-0.06,0.275,-0.185
PRDX4 C51 (UniProt Q13162),-0.129,0.117,0.621,-0.0596
PPP1R37 C451 (UniProt O75864),-0.0806,0.169,-0.649,0.163
PPFIA3 C250 (UniProt O75145),-0.132,-0.554,0.42,-0.173
POLR2A C641,-0.0741,0.467,-0.134,0.37
PPP6R2 C216 (UniProt O75170),-0.293,0.257,-0.0855,0.347
PRKAR2B C211 (UniProt P31323),-0.0196,0.173,-0.136,0.15
PROSER1 C171 (UniProt Q86XN7),0.182,0.193,-0.0259,0.484
PRKD2 C217,-0.257,0.115,-0.0559,0.0131

# Some of the entries so far, bar-delimited.
Target | log2 mean competition ratio ([1]; 50 µM) | log2 mean competition ratio ([1]; 200 µM) | log2 mean competition ratio ([2]; 50 µM) | log2 mean competition ratio ([2]; 200 µM)
PPP2R5D C484 (UniProt Q14738) | -0.0997 | -0.192 | -0.36 | -0.163
PPFIBP1 C453 (UniProt Q86W92) | 0.0735 | -0.06 | 0.275 | -0.185
PRDX4 C51 (UniProt Q13162) | -0.129 | 0.117 | 0.621 | -0.0596

# More entries follow.

Target,log2 mean competition ratio ([1]; 50 µM),log2 mean competition ratio ([1]; 200 µM),log2 mean competition ratio ([2]; 50 µM),log2 mean competition ratio ([2]; 200 µM)
PPIG C549 (UniProt Q13427),-0.196,0.14,-0.223,0.13
PRKDC C974 (UniProt P78527),-0.0371,-0.052,-0.299,0.0262
PRPS2 C91 (UniProt P11908),-0.0833,-0.199,-0.123,-0.0708
PRKCSH C471,-0.0703,0.127,-0.237,0.111
PRDX3 C45 (UniProt P30048),-0.129,0.105,-0.231,0.298
PRPS1 C265,0.00111,-0.268,0.773,-0.402
POP5 C11 (UniProt Q969H6),0.219,-0.00453,0.0417,-0.00207
PPP6R1 C455 (UniProt Q9UPN7),-0.163,-0.0403,-0.666,-0.108
PPM1D C478,-0.373,-0.304,0.0838,-0.0343
POLR2B C221 (UniProt P30876),-0.0644,0.0906,0.00766,0.138
PPM1E C525 (UniProt Q8WY54),-0.473,0.223,0.373,0.0841
PRDM6 C168,-0.263,-0.204,-0.157,0.113
PPIP5K2 C779,-0.112,-0.412,0.355,-0.0722
PRKCI C190 (UniProt P41743),-0.144,-0.0445,0.134,0.121
POLR2B C161 (UniProt P30876),0.0933,0.1,0.0154,0.0916
PRPF8 C435 (UniProt Q6P2Q9),-0.116,0.0618,-0.156,0.0312
PRR11 C120,0.206,-0.0941,-0.206,0.0726
PRDX5 C100 (UniProt P30044),0.126,-0.561,0.0845,-0.263
PPP2R1B C186,-0.353,-0.278,-0.0639,0.0929
PRKDC C3837 (UniProt P78527),0.0406,0.54,-0.412,0.34
POLRMT C94 (UniProt O00411),-0.199,-0.18,-0.553,-0.148
PRKCQ C322 (UniProt Q04759),-0.0918,-0.15,-0.166,-0.116
PRKDC C3347 (UniProt P78527),0.0391,-0.146,0.169,-0.19
PRMT3 C417 (UniProt O60678),-0.223,-0.126,0.034,-0.0725
PRPF8 C1228 (UniProt Q6P2Q9),-0.0492,0.11,0.402,-0.0337

Target,log2 mean competition ratio ([1]; 50 µM),log2 mean competition ratio ([1]; 200 µM),log2 mean competition ratio ([2]; 50 µM),log2 mean competition ratio ([2]; 200 µM)
POLR2C C107 (UniProt P19387),-0.234,0.0899,-0.0662,0.265
POLR2H C30 (UniProt P52434),-0.121,-0.171,-0.513,-0.303
PPP1R35 C142 (UniProt Q8TAP8),-0.128,0.111,-0.14,-0.192
PRCP C233 (UniProt P42785),0.281,-0.52,-0.00296,-0.48
PPP2R5C C513 (UniProt Q13362),0.23,-0.0827,0.133,-0.143
POLR3B C161 (UniProt Q9NW08),0.0668,0.484,0.138,0.569
PPP6R3 C830 (UniProt Q5H9R7),-0.0656,0.172,0.097,0.412
PPP2R2A C262,-0.108,-0.0626,0.1,-0.0818
PPIP5K2 C729,-0.0611,-0.341,-0.448,-0.211
PPOX C258 (UniProt P50336),0.269,0.0427,0.759,0.237
POP1 C777 (UniProt Q99575),-0.271,0.241,-0.254,0.193
PPP2R5B C113 (UniProt Q15173),0.0224,-0.0434,-0.337,-0.0442
PRKCE C352 (UniProt Q02156),0.218,0.202,-0.0308,-0.214
PPP5C C404 (UniProt P53041),-0.248,0.0314,-0.289,0.00114
PPIP5K2 C900,-0.12,-0.107,-0.34,-0.164
POLR3B C145 (UniProt Q9NW08),0.0329,-0.201,0.206,0.101
PPP1R12B C718 (UniProt O60237),-0.132,0.354,0.253,0.00974
PPP4R1 C198 (UniProt Q8TF05),0.0265,-0.147,0.135,0.352
POTEI C917 (UniProt P0CG38),0.199,0.0335,0.688,-0.119
PPME1 C238 (UniProt Q9Y570),-0.31,0.081,-0.289,0.0681
PREB C128 (UniProt Q9HCU5),0.413,0.101,-0.0639,-0.166
PRR14L C1079 (UniProt Q5THK1),-0.123,-0.00812,0.0813,0.0505
